Test [1] has as its target T1, full-length ANK6 fused to N-terminal Venus (ANK6-Venus^N) (Arabidopsis thaliana) (UniProt Q9FNP4).
T1 sequence: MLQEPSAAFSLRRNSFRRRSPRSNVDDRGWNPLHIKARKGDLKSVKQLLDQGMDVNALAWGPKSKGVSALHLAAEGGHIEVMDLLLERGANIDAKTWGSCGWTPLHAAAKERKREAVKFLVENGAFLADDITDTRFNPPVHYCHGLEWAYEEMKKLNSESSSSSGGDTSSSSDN
Nature of the test: split reporter; BiFC in mesophyll protoplasts of Arabidopsis rosette leaves; RPS9M-CFP^C with ANK6-Venus^N; MitoTracker to mark mitochondria.

Test [2] concerns the target T2, ANK6 (amino acid residues 21-174) fused to the GAL4 DNA-binding domain (Arabidopsis thaliana) (UniProt Q9FNP4).
T2 sequence: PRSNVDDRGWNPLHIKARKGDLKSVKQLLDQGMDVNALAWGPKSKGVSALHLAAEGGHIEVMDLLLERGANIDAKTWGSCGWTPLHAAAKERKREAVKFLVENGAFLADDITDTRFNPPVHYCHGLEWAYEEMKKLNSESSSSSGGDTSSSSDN
Nature of the test: two-hybrid; directed test; AH109 cotransformed with pGADT7 (RPS9M CDS and truncated variants) and pGBKT7 (ANK6) constructs; growth on SD-LWHA, 30°C, 2-3 days.

These are yes or no findings as the source states them, for the method shown. For some assays here: Binding seen in cells or lysates may run through a third protein. Some results given as binding are weak or reduced against the parent protein; the word gives no strength. Where a sequence is shown, tags or fusion partners need not be part of it.

B1: full-length RPS9M fused to C-terminal CFP (RPS9M-CFP^C) (protein, UniProt Q8L6Z4 35-430)
chain: STNSSGGGGNGDGNGRNRNDVPWSFTGVNDDKSGPFSSDDSFGSSGVAGSGLPGGEGKWPEEPKRWNIKEEEEKVVFDTGGEVGQGIETSRERRGNEWEETKRWDMKEGEEKVVFGGGGDEVDGFGIRGEVKSNEWDVSKPWNLKEEEEGVVFDTGGEVPFSFENSLEMAEEERVKKELIEKEEKELLEVIKGPDRAFGDLIAKSGITDEMLDSLIALKDFQGVEGLPPLTEIENLRREKSSKKSSRAEIELQMQEDIAKARVRQVDETGRAYGTGRRKCSIARVWIQPGEGKFQVNEKEFDVYFPMLDHRAALLRPLAETKTLGRWDIKCTVKGGGTTGQVGAIQLGISRALQNWEPDMRTSLRAAGFLTRDSRVVERKKPGKAKARKSFQWVKR
Take B1: in test [1], the binding entry is on record as “binds”.

B2: full-length RPS9M fused to the GAL4 activation domain (protein, UniProt Q8L6Z4 1-430)
chain: MLSRLFLRHSNLRFVTLVSSKSNSQIFSSFIRPLSTNSSGGGGNGDGNGRNRNDVPWSFTGVNDDKSGPFSSDDSFGSSGVAGSGLPGGEGKWPEEPKRWNIKEEEEKVVFDTGGEVGQGIETSRERRGNEWEETKRWDMKEGEEKVVFGGGGDEVDGFGIRGEVKSNEWDVSKPWNLKEEEEGVVFDTGGEVPFSFENSLEMAEEERVKKELIEKEEKELLEVIKGPDRAFGDLIAKSGITDEMLDSLIALKDFQGVEGLPPLTEIENLRREKSSKKSSRAEIELQMQEDIAKARVRQVDETGRAYGTGRRKCSIARVWIQPGEGKFQVNEKEFDVYFPMLDHRAALLRPLAETKTLGRWDIKCTVKGGGTTGQVGAIQLGISRALQNWEPDMRTSLRAAGFLTRDSRVVERKKPGKAKARKSFQWVKR
With B2, the binding result in test [2] is reported as “binds”.

The values above are taken from publication PMC5744018.
